At least one peptide structure holds a part that was inferred or is arguable (an end, a ring closure or a residue). *1 amine or outer side, *2 acyl side, *3 side chain or, on linkers, in order; H or OH if unused. Where a SMILES comes first, the peptide text is derived from it. Bridges are numbered along the chain shown (N, C = ends). [ ]: non-standard residue; d: D form. 1Nal = N[C@@H](Cc1cccc2ccccc12)C(=O)O; TBMB = c1c(C[*:1])cc(C[*:3])cc1C[*:2]; Tle = CC(C)(C)[C@H](N)C(=O)O; βAla = NCCC(=O)O; Sar = CNCC(=O)O
How the values were obtained:
MMP24 = MMP24 (Homo sapiens, UniProt Q9Y5R2); experiment: Binding to related MMP family member
MMP1 [1] = molecular target: T1, MMP1 (Homo sapiens, UniProt P03956); experiment: Effect on related MMP catalytic activity; assay type: biochemical; conditions: in vitro
T1 sequence (P03956 20-469 limits assumed): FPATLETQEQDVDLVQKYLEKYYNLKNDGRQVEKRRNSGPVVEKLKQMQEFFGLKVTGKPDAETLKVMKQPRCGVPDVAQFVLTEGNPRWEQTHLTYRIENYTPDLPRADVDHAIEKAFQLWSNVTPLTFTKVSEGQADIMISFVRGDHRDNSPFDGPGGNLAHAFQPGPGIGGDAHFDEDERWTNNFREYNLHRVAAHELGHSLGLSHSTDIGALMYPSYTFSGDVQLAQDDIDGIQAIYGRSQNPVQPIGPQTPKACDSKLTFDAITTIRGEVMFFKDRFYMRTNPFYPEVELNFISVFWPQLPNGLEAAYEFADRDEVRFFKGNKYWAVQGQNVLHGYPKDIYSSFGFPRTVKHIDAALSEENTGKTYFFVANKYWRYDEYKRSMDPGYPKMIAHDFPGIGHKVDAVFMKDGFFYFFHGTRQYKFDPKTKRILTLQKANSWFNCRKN

Sequences of proteins named here, by UniProt entry; tags and fusion partners are left off. Residues count along the entry.
UniProt Q9Y5R2, 156-645, species assumed: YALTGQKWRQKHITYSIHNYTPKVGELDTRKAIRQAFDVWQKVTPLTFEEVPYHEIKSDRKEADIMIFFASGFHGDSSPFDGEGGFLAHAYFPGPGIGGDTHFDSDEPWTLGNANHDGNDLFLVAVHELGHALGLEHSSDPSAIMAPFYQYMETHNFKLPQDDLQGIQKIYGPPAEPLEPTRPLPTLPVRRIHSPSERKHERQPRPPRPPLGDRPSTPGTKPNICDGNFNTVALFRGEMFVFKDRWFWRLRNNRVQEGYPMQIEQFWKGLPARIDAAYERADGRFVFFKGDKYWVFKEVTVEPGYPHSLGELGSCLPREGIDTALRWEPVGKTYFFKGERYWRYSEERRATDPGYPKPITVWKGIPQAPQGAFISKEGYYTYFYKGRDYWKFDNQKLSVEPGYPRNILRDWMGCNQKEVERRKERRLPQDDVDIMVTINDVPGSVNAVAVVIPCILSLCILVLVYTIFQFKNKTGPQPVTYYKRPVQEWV
UniProt P14780, 94-707, species assumed: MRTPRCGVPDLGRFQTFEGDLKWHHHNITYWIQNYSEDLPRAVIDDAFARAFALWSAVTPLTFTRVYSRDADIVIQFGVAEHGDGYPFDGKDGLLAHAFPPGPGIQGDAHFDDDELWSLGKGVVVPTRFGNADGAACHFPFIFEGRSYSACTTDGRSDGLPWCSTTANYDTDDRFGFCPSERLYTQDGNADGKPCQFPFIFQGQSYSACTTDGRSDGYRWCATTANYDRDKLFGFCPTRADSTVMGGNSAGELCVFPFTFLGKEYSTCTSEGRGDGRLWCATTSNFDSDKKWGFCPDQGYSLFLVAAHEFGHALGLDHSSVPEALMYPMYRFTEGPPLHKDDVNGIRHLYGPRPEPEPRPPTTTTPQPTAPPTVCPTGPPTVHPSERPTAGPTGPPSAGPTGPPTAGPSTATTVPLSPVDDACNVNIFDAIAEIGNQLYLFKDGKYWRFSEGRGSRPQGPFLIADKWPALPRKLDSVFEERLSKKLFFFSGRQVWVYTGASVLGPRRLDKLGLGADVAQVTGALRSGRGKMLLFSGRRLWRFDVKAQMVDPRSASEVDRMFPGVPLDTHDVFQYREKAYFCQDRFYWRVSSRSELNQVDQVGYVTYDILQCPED
UniProt P51511, 132-669, species assumed: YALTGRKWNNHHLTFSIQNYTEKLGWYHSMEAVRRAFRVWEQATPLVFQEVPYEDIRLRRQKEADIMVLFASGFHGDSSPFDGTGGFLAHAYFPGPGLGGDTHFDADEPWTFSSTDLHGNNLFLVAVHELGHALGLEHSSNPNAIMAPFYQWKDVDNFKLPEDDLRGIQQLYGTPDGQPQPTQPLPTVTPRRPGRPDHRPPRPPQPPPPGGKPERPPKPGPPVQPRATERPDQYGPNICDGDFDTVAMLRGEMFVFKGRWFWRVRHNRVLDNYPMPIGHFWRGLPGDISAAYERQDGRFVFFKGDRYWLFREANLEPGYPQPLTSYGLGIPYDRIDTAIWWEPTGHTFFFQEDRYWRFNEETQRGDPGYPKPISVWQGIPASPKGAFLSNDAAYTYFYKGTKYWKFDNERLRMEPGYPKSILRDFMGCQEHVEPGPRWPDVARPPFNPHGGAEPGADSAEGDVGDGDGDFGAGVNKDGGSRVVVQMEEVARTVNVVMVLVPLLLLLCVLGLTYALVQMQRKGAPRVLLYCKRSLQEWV

[2] = test system: MT1 on HT1080 fibrosarcoma cells; experiment: Internalization of fluorescently-tagged peptide; assay type: cell-based; conditions: fluorescently-tagged N241
MMP1 [3] = molecular target: T1, MMP1; experiment: Binding to related MMP family member
Pro-MMP1 = molecular target: T2, Pro-MMP1 (Homo sapiens, UniProt P03956); experiment: Binding to related MMP family member
T2 construct: (MMP15, MMP16, MMP24, MMP1, Pro-MMP1, MMP2)
T2 sequence (P03956 20-469): T1 sequence (P03956 20-469 limits assumed)

[4] = test system: cell migration or invasion; experiment: Effect on cell migration or invasion; assay type: cell-based; conditions: in vitro
catalytic domain (MT1) = experiment: Binding to catalytic domain of MT1
MMP16 = MMP16 (Homo sapiens, UniProt P51512); experiment: Binding to related MMP family member
MMP9 = MMP9 (Homo sapiens, UniProt P14780); experiment: Effect on related MMP catalytic activity; assay type: biochemical; conditions: in vitro
MT1 = MT1 (Homo sapiens, UniProt P50281); experiment: Effect on catalytic activity of the protease in vitro; assay type: biochemical
MMP2 [5] = molecular target: T3, MMP2 (Homo sapiens, UniProt P08253); experiment: Effect on related MMP catalytic activity; assay type: biochemical; conditions: in vitro
T3 sequence (P08253 110-660): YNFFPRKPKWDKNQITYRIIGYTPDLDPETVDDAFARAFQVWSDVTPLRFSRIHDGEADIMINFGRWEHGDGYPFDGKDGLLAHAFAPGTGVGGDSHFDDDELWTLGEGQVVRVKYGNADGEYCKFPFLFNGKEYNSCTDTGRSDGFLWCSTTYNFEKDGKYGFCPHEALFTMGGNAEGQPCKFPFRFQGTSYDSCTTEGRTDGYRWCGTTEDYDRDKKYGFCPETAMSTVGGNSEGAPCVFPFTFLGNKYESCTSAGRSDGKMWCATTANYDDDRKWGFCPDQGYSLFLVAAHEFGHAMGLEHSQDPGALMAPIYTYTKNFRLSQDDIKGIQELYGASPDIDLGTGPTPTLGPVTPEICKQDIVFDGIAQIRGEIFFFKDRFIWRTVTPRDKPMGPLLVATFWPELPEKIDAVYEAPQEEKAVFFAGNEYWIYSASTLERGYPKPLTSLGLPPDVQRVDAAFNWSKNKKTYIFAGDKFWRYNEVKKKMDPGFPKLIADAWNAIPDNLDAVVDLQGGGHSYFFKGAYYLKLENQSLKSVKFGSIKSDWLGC

MMP2 [6] = molecular target: T3, MMP2; experiment: Binding to related MMP family member
MMP15 = MMP15 (Homo sapiens, UniProt P51511); experiment: Binding to related MMP family member

C[C@H](NC(=O)CN(C)C(=O)CN(C)C(=O)CN(C)C(=O)CN(C)C(=O)CN(C)C(=O)CN(C)C(=O)CN(C)C(=O)CN(C)C(=O)CN(C)C(=O)CN(C)C(=O)CCN)C(=O)N[C@H]1CSCc2cc3cc(c2)CSC[C@H](NC(=O)[C@@H](C)NC(=O)[C@H](Cc2cccc4ccccc24)NC(=O)[C@H](CCC(=O)O)NC(=O)[C@H](CC(N)=O)NC(=O)[C@@H](C)NC1=O)C(=O)N[C@@H](CCC(=O)O)C(=O)N[C@@H](CC(=O)O)C(=O)N[C@@H](Cc1ccccc1)C(=O)N[C@@H](Cc1ccc(O)cc1)C(=O)N[C@@H](CC(=O)O)C(=O)N[C@@H](C(C)(C)C)C(=O)N[C@H](C(N)=O)CSC3 [N241] (H-[βAla][Sar][Sar][Sar][Sar][Sar][Sar][Sar][Sar][Sar][Sar]AC[dA]NE[1Nal][dA]CEDFYD[Tle]C-NH2; linker 13-19-26 via TBMB)
binding toward MMP24 (MMP24): no binding
impact on MMP1 catalytic activity (MMP1 [1]): no direct impact
internalization after binding to MT1 on HT1080 cells [2]: rapid internalization and subsequent lysosomal localization
binding toward MMP1 (MMP1 [3]): no binding
binding toward Pro-MMP1 (Pro-MMP1): no binding
impact on cell migration or invasion [4]: no direct impact
binding to the catalytic domain (catalytic domain (MT1)): no binding
binding toward MMP16 (MMP16): no binding
impact on MMP9 catalytic activity (MMP9): no direct impact
impact on the catalytic activity of the protease (MT1) (MT1): no direct impact
impact on MMP2 catalytic activity (MMP2 [5]): no direct impact
binding toward MMP2 (MMP2 [6]): no binding
binding toward MMP15 (MMP15): no binding
